{"source": "patent US20140031282A1", "about": "“FORMULATION FOR TREATMENT OF HYPERINSULINEMIC HYPOGLYCEMIA FOLLOWING GASTRIC BYPASS SURGERY” (priority 2012, published 2014)", "origin": "cited, not measured here", "conditions": "acarbose used alone", "note": "Entries after “also recorded” stand apart in the source; their conditions may differ. At least one structure is not confirmed: it was looked up by name or label, or the drawing left a doubt."}
{"smiles": "C[C@H]1O[C@H](O[C@H]2[C@H](O)[C@@H](O)[C@@H](O[C@H]3[C@H](O)[C@@H](O)C(O)O[C@@H]3CO)O[C@@H]2CO)[C@H](O)[C@@H](O)[C@@H]1N[C@H]1C=C(CO)[C@@H](O)[C@H](O)[C@H]1O", "note": "(stereo partly shown) [acarbose]", "values": [{"measurement": "success in treatment of hyperinsulinemic hypoglycemia", "result": "only limited success; also recorded: not been particularly successful"}]}
